# Tested on: PKC
# Test: PKC activity assay in flank organ hair follicle homogenate (32P phosphorylation of acetylated-myelin basic protein)
# Format: biochemical, Golden Syrian hamster
# Settings: at 500 μM
# Experimental: PKC activity was assayed in hair follicles isolated from flank organs using a commercial assay kit obtained from GIBCO BRL (Gaithersburg, Md.). The assay is based on the phosphorylation (incorporation of ^32 -P into) of acetylated-myelin basic protein. After isolation, the flank organ hair follicles were washed in phosphate-buffered saline and homogenized in a buffer containing 20 mM Tris, pH 7.5, 0.5 mM EDTA, 0.5% Triton X-100, 10 mM β-mercaptoethanol, and 25 μg/each of the protease inhibitors aprotinin and leupeptin. The hair follicle homogenate was added to the PKC reaction mixture at a final concentration of 10-20 μg/assay. The assay also included buffer, H2 O, phospholipid. The assay was performed in the presence or absence of select PKC inhibitors. The reaction mixture volume was 50 μl, the ^32 P-ATP substrate was added in a volume of 10 μl. The reaction proceeded at 32° for 15 minutes, whereupon a 16.3 μL aliquot was removed from the reaction mixture and spotted onto a paper filter. Filters were washed twice in 1% phosphoric acid with gentle shaking for 5 minutes. Filters were then washed twice in H2 O and placed in scintillation vials. ^32 P-Incorporation, a measure of the enzyme activity, was determined using standard liquid scintillation techniques.
smiles,measurement,value
CSc1ccc2c(c1)N(CCC1CCCCN1C)c1ccccc1S2 (stereo not shown) [Thioridazine],inhibition of PKC activity,30%

# Source: patent US5554608A, “Inhibition of hair growth” (priority 1994, dated 1996)
